Source: PubChem BioAssay AID624297 (National Center for Advancing Translational Sciences (NCATS), 2012)
Among all 340,000 compounds or so, about 6,200 (1.8%) were called active. This list was built around the results that the source calls inconclusive (neither active nor inactive); the mix of calls is not that of the screen. Calls follow the shape of the dose curve; as a rule, active = well fitted activation curve with a large enough effect; inconclusive = small, poorly fitted or top-dose-only effect; inactive = no such curve, though single readings can be large or run the other way. A potency beside an inconclusive call is a rough fit, not a confirmed value.

Assay: A quantitative high throughput screen for small molecules that induce DNA re-replication in SW480 colon adenocarcinoma cells. Also: nearly all actives have a fitted effect of over 55% in size. As to re-replication activation: % of control where 0% means no effect.
Conditions: Hoechst DNA content imaging, 48 h; re-replication activation: at 46.1 µM (top of the series) unless noted
In short: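 Compounds, transferred as 23 nL by pin tool, were incubated with cells for 48 hr; DNA content per nucleus was then quantified by Hoechst staining and fluorescence plate imaging.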
Potency is read from the fitted curve at half-maximal effect.

SMILES | Potency | re-replication activation
CN(Cc1ccc(Cl)cc1)C(=O)CCl | inconclusive: 20.6 µM [activator, single point] | –
O=C(c1ccco1)N1CCN(S(=O)(=O)/C=C/c2ccccc2)CC1 | inactive | –
CCOC(=O)CC1=C(C(=O)OCC)C(c2ccncc2)C(C#N)=C(N)O1 (centres undefined) | inactive | –
CC(O)Cn1c(N2CCCC2)nc2c1c(=O)n(C)c(=O)n2C (centres undefined) | inconclusive: 1.84 µM [activator, partial curve, poor fit] | –
Cc1ccc2c(c1)C(=O)C(=O)N2CCCOc1ccccc1C | inactive | –
O=C(CNc1ccc2c(c1)OCO2)N/N=C\c1cn(Cc2ccccc2)c2ccccc12 | inactive | –
COc1cc(CNc2ccc(CNc3ncn[nH]3)cc2)cc(Cl)c1OCc1ccccc1 | inconclusive: 23.1 µM [activator, partial curve, poor fit] | –
CCCN1CCN(CCCNC(=O)C2CCN(c3nnc(-n4c(C)ccc4C)s3)CC2)CC1 | inconclusive: 35.5 µM [activator, single point] | –
CCC(NC(=S)NCc1ccc(F)cc1)c1ccc(C(C)C)cc1 (centres undefined) | inconclusive: 29.1 µM [activator, single point] | –
CCCCSc1cc(C)nc(N)n1 | inactive | –
Cc1cc(O)c2c(c1)CC1C3CCC4CC(=O)CCC4(C)C3CC(=O)C21C (centres undefined) | inconclusive: 29.1 µM [activator, single point] | –
CCN(CC)S(=O)(=O)c1ccc(OC)c(NC(=O)Cn2cnc3c2c(=O)n(C)c(=O)n3C)c1 | inconclusive: 29.1 µM [activator, partial curve, poor fit] | –
Cc1ccc2c(CN3CCC(C(N)=O)CC3)cc(=O)oc2c1C | inactive | –
Cc1nn(-c2ccccc2)c(C)c1/C=N/NC(=O)c1cc(-c2cccc3ccccc23)n[nH]1 | inconclusive: 14.6 µM [activator, partial curve] | –
COc1ccc2c(c1)C(=O)/C(=C/C=C/c1ccccc1)CC2 | inconclusive: 7.31 µM [activator, partial curve, poor fit] | –
Cc1ccc(C2CC(c3cccs3)=NN2C(=O)c2ccco2)o1 (centres undefined) | inconclusive: 29.1 µM [activator, partial curve, poor fit] | –
COc1ccc(N2C(=O)NC3CC2(C)Oc2ccccc23)cc1OC (centres undefined) | inconclusive: 18.4 µM [activator, single point] | –
O=C(NC1CCCC1)C(c1cccnc1)N(Cc1ccccc1F)C(=O)c1csnn1 (centres undefined) | inactive | –
COc1ccc(/C=C(/C(=O)Nc2ccccc2C(=O)N2CCCC2)c2ccccc2)cc1 | inactive | –
COc1ccccc1CNC(=O)c1cc(-c2ccccc2C)nn1CC1CC(c2cccnc2)=NO1 (centres undefined) | inconclusive: 6.51 µM [activator, single point] | –
O=C(CCl)N=c1sccn1Cc1cccc2ccccc12 | inconclusive: 0.517 µM [activator, full curve, poor fit] | –
COc1ccc(Cl)cc1C(=O)NNC(=O)c1cc2ccccc2o1 | inactive | –
Cc1ccc(N=Cc2c(O)n(-c3ccc4c(c3)OCO4)c(=O)c3ccccc23)cc1 | inconclusive: 16.4 µM [activator, single point] | –

Random excerpt: 3 entries already listed
SMILES | Potency | re-replication activation
CCN(CC)S(=O)(=O)c1ccc(OC)c(NC(=O)Cn2cnc3c2c(=O)n(C)c(=O)n3C)c1 | inconclusive: 29.1 µM [activator, partial curve, poor fit] | –
Cc1ccc(N=Cc2c(O)n(-c3ccc4c(c3)OCO4)c(=O)c3ccccc23)cc1 | inconclusive: 16.4 µM [activator, single point] | –
COc1cc(CNc2ccc(CNc3ncn[nH]3)cc2)cc(Cl)c1OCc1ccccc1 | inconclusive: 23.1 µM [activator, partial curve, poor fit] | –

Continued.

SMILES | Potency | re-replication activation
COc1ccc(OCC(=O)N/N=C/C(C)=C/c2ccco2)c(Br)c1 | inconclusive: 23.1 µM [activator, single point] | –
CCc1cc2c(cc3c(=O)n(CC(=O)NCCCN4CCCCCC4)nc(CC)n32)s1 | inactive | –
COc1cc(CNc2ccc(C)c(C)c2)cc(OC)c1OC | active: 8.2 µM | –
Cc1ccccc1N1C(=O)c2cccc3cccc(c23)C1=O | – | inconclusive: 52.2% [activator]
Cc1ccc(C)c(NC(=O)CN(C)C(=O)c2ccc(-n3cncn3)c([N+](=O)[O-])c2)c1 | inactive | –
CCOC(=O)c1sc(NC(=O)CN2CCN(c3ccccc3)CC2)nc1C | inconclusive: 29.1 µM [activator, single point] | –
O=C(NCC(c1ccco1)N1CCOCC1)c1cccc(Cl)c1 (centres undefined) | inconclusive: 29.1 µM [activator, partial curve, poor fit] | –
COc1ccc(Sc2ccc(NC(=O)c3ccccc3Cl)cc2C#N)cc1 | inconclusive: 23.1 µM [activator, single point] | –
Cc1ccc(S(=O)(=O)Nc2ccc3c(c2)nc(CCN2CCCC2)n3C)cc1 | inconclusive: 23.1 µM [activator, single point] | –
CC(=O)N[C@@H](CS)C(=O)O | inconclusive: 0.259 µM [activator, single point] | –
CCN(Cc1ccccc1)C(=O)C1CCN(Cc2sccc2C)CC1 | active: 29.1 µM | –
C=CCNC(=O)C(=O)NCC(c1ccc2c(c1)OCO2)N1CCOCC1 (centres undefined) | inconclusive: 18.4 µM [activator, partial curve, poor fit] | –
CCOc1ccc(-c2cnc3n2CCC3)cc1 | active: 9.2 µM | –
O=C1NC(=S)N(C(=O)c2ccc(F)cc2)/C1=C/c1ccccc1 | inconclusive: 6.51 µM [activator, single point] | –
c1ccc(-c2nnnn2-c2ccccn2)cc1 | inactive | –
Oc1ccccc1C=NNC(=S)NN=Cc1ccccc1O | active: 3.66 µM | –
N#Cc1ccccc1COc1ccc(/C=C/C(=O)O)cc1 | inactive | –
COc1ccc(NS(=O)(=O)c2cccc(C(=O)OCC(=O)NC3CC3)c2)cc1 | inconclusive: 5.8 µM [activator, single point] | –
CCN(CC)C(=O)[C@H]1CC(CC(=O)NCC23CC4CC(CC(C4)C2)C3)C(=O)N2CCc3c([nH]c4ccccc34)[C@]12C (some centres undefined) | active: 23.1 µM | –
COc1ccc(CC(=O)Nc2cc(S(C)(=O)=O)ccc2Cl)cc1S(=O)(=O)N1CCOCC1 | inactive | –
COc1ccc(CCNC(=O)c2cc(-c3ccc(C)cc3O)n[nH]2)cc1OC | inconclusive: 23.1 µM [activator, partial curve, poor fit] | –
COc1ccc(-c2ccc(-c3cc(=O)oc4cc(OC)c(OC)c(OC)c34)cc2)cc1F | inactive | –
CN1CCN(c2nc(-c3ccccc3)nc(-c3ccc(F)cc3)c2C#N)CC1 | inconclusive: 29.1 µM [activator, single point] | –

SMILES | Potency | re-replication activation
O=C(COc1cccc(C(F)(F)F)c1)NCC(c1cccs1)N1CCOCC1 (centres undefined) | inactive | –
CCCCCCn1c(N2CCN(c3ccccc3)CC2)nc2c1c(=O)n(C)c(=O)n2C | inconclusive: 11.6 µM [activator, partial curve] | –
CCN(CC)CCNC(=O)Cn1cnc2sc(C)c(S(=O)(=O)N3CCC(C)CC3)c2c1=O | inconclusive: 20.6 µM [activator, single point] | –
CC1CC(=O)c2c(cc3c(-c4c(O)cc(O)c5c(O)c6c(cc45)OC(C)CC6=O)c(O)cc(O)c3c2O)O1 (centres undefined) | active: 6.51 µM | –
CCOc1cc(/C=N/NC(=O)N/N=C/c2ccc(O)c(OCC)c2)ccc1O | inconclusive: 3.26 µM [activator, partial curve, poor fit] | –
COc1ccc(S(=O)(=O)CCC(=O)N2CCN(c3ccccc3F)CC2)cc1 | inconclusive: 18.4 µM [activator, partial curve, poor fit] | –
CCCNC(=O)c1ccccc1NC(=O)c1cccc(-n2cnnn2)c1 | inactive | –
Cc1ccc2c(C(=O)CCl)c(C)[nH]c2c1 | inconclusive: 16.4 µM [activator, single point] | –
COc1cc2c(cc1OC)C(C)N(C(=O)CCc1c[nH]c3ccccc13)CC2 (centres undefined) | inconclusive: 20.6 µM [activator, single point] | –
CCOC(=O)c1c(C)[nH]c(N=Nc2ccc(OC)cc2)c1C | inconclusive: 18.4 µM [activator, single point] | –
CCc1ccccc1NC(=O)c1noc(C(C)C)c1[N+](=O)[O-] | inconclusive: 18.4 µM [activator, single point] | –
CC(=O)c1cn(CCOc2ccccc2C)c2ccccc12 | inconclusive: 2.59 µM [activator, single point] | –
Cc1cc(C)c(C#N)c(SCc2cc3c(cc2Cl)OCO3)n1 | inconclusive: 14.6 µM [activator, single point] | –
O=C(COc1ccc(N2C(=O)c3ccccc3C2=O)cc1)c1ccccc1 | inactive | –
O=C1Nc2ccc(S(=O)(=O)NCC3CCCO3)c3cccc1c23 (centres undefined) | inconclusive: 0.082 µM [activator, full curve, poor fit] | –
Cc1nc(SCC(=O)NCc2ccco2)[nH]c(=O)c1C | inconclusive: 16.4 µM [activator, partial curve, poor fit] | –
CCc1c(C)sc(NC(=O)C2CC(c3c(F)cccc3Cl)=NO2)c1C#N (centres undefined) | – | inconclusive: 54.8% [activator]
Cn1cc(CCNCc2cn[nH]c2-c2ccc(-c3ccccc3)cc2)cn1 | inconclusive: 2.06 µM [activator, single point] | –
C[C@]12c3[nH]c4cc(-c5ccco5)ccc4c3CCN1C(=O)[C@@H](CC(=O)NCCN1CCOCC1)C[C@@H]2C(=O)N1CCOCC1 | inconclusive: 1.16 µM [activator, single point] | –
Clc1ccc(-n2nnnc2-c2cnc3ccc(Cl)cc3c2-c2ccccc2)cc1 | inconclusive: 29.1 µM [activator, single point] | –
CCOc1ccccc1OCCCCCc1c(C)n[nH]c1C | inconclusive: 29.1 µM [activator, single point] | –
CC(OC(=O)c1ccc(NC(=O)CC#N)cc1)C(=O)NCCC1=CCCCC1 (centres undefined) | inactive | –
COC(=O)[C@@]12CCCN1[C@H](c1ccc(-c3ccc(OC)cc3)c(OC)c1)[C@H]1C(=O)N(C)C(=O)[C@H]12 | inconclusive: 29.1 µM [activator, partial curve, poor fit] | –
